# Measured values reported in PubChem BioAssay AID504842 (National Center for Advancing Translational Sciences (NCATS), 2011).
# Hit rate of the full screen: of about 330,000 compounds, about 100 (0.03%) were called active. Inconclusive means that the source gave no clear call. Such entries were picked first, then a sample of the others. Calls come from the whole dose curve; as a rule, active = well fitted inhibition curve with a large enough effect; inconclusive = small, poorly fitted or top-dose-only effect; inactive = flat fitted curve, though single readings scatter. Potencies of inconclusive entries are doubtful fits and often do not repeat.
# Tested on: Chaperonin Mm-Cpn (Methanococcus maripaludis)
# Test: Inhibitors of TCP-1 ring complex (TRiC) of Methanococcus maripaludis (MmCpn): qHTS; note: nearly all actives have a fitted effect of over 80% in size;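 for Potency: enzyme at 25 nM with ATP substrate at 10 µM during the reaction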
# Conditions: purified Mm-Cpn ATPase, ADP Transcreener TR-FRET
# Excerpt: The eukaryotic chaperonin TRiC (for TCP-1 ring complex) is an essential and conserved chaperone required for the folding and activation of 10-15% of the proteins encoded by the human genome. […] The TRiC complex consist of two stacked 7-9 membered rings, each containing a central cavity. Substrates are folded within the cavity in an ATP-dependent manner. TRiC is a complex of eight different, essential proteins. As each of the genes encoding the eight subunits is essential for cell viability and no protocol has been developed to over-express this enzyme to high levels. That is why several groups studying the TRiC chaperonin have turned to the archaeal homolog of TRiC, Methanococcus maripaludis (Mm-CPN), and have used this enzyme as a model system for the study of the type II chaperonin family. Small molecule inhibitors of the Mm-CPN enzyme would be extremely useful to study the mechanism of chaperonin activity. Importantly, TRiC and Mm-CPN both require ATP hydrolysis for function. Furthermore, the ATP binding sites are highly conserved among these type II chaperonins. This provides us with an easy, well tested and straightforward assay to identify inhibitors of chaperonin activity. The Mm-CPN assay was developed in 1536-well plate format using the HTRF Transcreener ADP assay kit (Cisbio, Bedford, MA). This assay applied the time resolved fluorescence resonance energy transfer (TR-FRET) principle. ATP in the presence of Mm-CPN is converted to ADP + Pi. An antibody labeled with Eu3+-Cryptate specific and bound to ADP labeled with […] (d2) competes with the unlabeled ADP generated by Mm-CPN. The resulting TR-FRET signal is inversely proportional to the concentration of ADP in the sample. In this assay a reduction in TR-FRET signal is observed with ATP turnover. NIH Chemical Genomics Center [NCGC] NIH Molecular Libraries Probe Centers Network [MLPCN] MLPCN Grant: DA030554-01A1 Assay Submitter (PI): Judith Frydman, Stanford University
# Purified Mm-CPN was supplied by the laboratory of Dr. Judith Frydman. Protein samples were stored at -80C as single use aliquots. Protein was thawed in ambient temperature water bath and placed on ice once thawed. Buffer was prepared fresh day of screen. The buffer composition below was used to prepare the working solution of the Mm-CPN protein and ATP substrate. The buffer is comprised of 30 mM TRIS pH 7.4, 100mM KCl, 5mM MgCl2, and 1mM DTT. A final concentration of 25nM Mm-CPN and 10uM ATP per well were used in the screen. Instructions according to the manufacturer were followed for the ADP Transcreener kit. Used 1536 well Greiner white, medium binding (MB), solid bottom plates. Plates were read on the PerkinElmer EnVision plate reader using Excitation = 320 nm and Emission = […], 665 nm. Protocol- 1.Dispense 1.5ul per well of working [Mm-CPN] = 50nM (or 75 ng / well) 2.Spin plate at 1000 rpm for 30 seconds 3.23nl of compound transferred per well 4.Incubate at 37degC for 10 minutes 5.Dispense 1.5ul per well of working [ATP] = 20uM 6.Incubate at 37degC for 30 minutes 7.Dispense 3ul per well of Anti-ADP Cryptate / ADP-d2 mix (prepared as instructed by Cisbio) 8.Incubate at ambient for 30 minutes 9.Read using EnVision
# % is set by controls: 0 for no effect and ±100 for the full control effect; potency is the fitted concentration of half-maximal effect.
SMILES,Potency,"activity, negative = inhibition"
COc1ccc2cc(C[C@@H]3CC[C@@H](CO)O3)ccc2c1,inactive,
CCCCC(=O)Nc1nc(C)c(-c2csc(Nc3ccc(Cl)cc3)n2)s1,"inconclusive: 100 µM [inhibitor, single point]",
C/C(=N\NC(=O)c1c(Cl)c(C)nn1C)c1ccc(NC(=O)C2CCC2)cc1,"inconclusive: 70.8 µM [inhibitor, single point]",
CCOc1cc2[nH]c(=O)n(Cc3ccccc3)c(=O)c2cc1OCC,"inconclusive: 100 µM [inhibitor, single point]",
CN(CCCNC(=O)c1ccc(N2CCCC2=O)cc1)c1ccccc1,inactive,
Cn1ccc2ccc(C3=CC(=O)C[C@H](c4ccc(F)cc4)C3)cc21,inactive,
CC(C)CC(=O)NC(=S)Nc1sc2c(c1C(N)=O)CCC2,inactive,
CCCSc1cc(N2CCCC2)nc(-c2ccccc2)n1,"inconclusive: 12.6 µM [inhibitor, single point]",
Cc1cc(C)nc(SCc2nnc(SCC(=O)Nc3ccc(C)c(C)c3)o2)n1,"inconclusive: 22.4 µM [inhibitor, single point]",
Cc1ccc(C(=O)N(Cc2cccs2)C2CCS(=O)(=O)C2)cc1 (stereo unspecified),inactive,
O/N=C/c1ccc(-c2ccccc2OC(F)(F)F)o1,"inconclusive: 22.4 µM [inhibitor, single point]",
O=S(=O)(c1ccccc1)N1CCN(C(c2ccccc2)c2ccc(OC(F)(F)F)cc2)CC1 (stereo unspecified),"inconclusive: 100 µM [inhibitor, single point]",
CCC(C)c1ccc(OCc2ccc(C(=O)O)o2)cc1 (stereo unspecified),inactive,
c1cncc(-c2nnc3n2C2(CCCCC2)Cc2ccccc2-3)c1,"inconclusive: 7.08 µM [inhibitor, single point]",
Cc1cc(-c2nnc(SCC(=O)Nc3ccc(Br)cc3F)n2N)n[nH]1,"inconclusive: 56.2 µM [inhibitor, single point]",
NC(=O)C1CCN(C2CC(=O)NC2=O)CC1 (stereo unspecified),inactive,
CCOC(=O)c1cnc(-c2ccccc2O)nc1Cl,inactive,
COc1ccc(NS(=O)(=O)c2ccc(N3CCCC3)c(NC(=S)Nc3cccc(C)c3C)c2)cc1,"inconclusive: 89.1 µM [inhibitor, single point]",
CC(C)N(Cc1ccccc1)C(=O)CN1C(=O)NC2(CCCc3ccccc32)C1=O (stereo unspecified),"inconclusive: 11.2 µM [inhibitor, single point]",
CNC(=O)c1ccc(C)c(NC(=O)C2=C(C)OCCS2)c1,"inconclusive: 17.8 µM [inhibitor, single point]",
Cc1ccc(OCc2cc(C(=O)N3CCC(C(O)C(C)C)CC3)no2)cc1C (stereo unspecified),inactive,
CCc1ccc(Nc2n[n+](-c3ccccc3)c(-c3ccc(N(CC)CC)cc3)s2)cc1,"inconclusive: 112 µM [inhibitor, partial curve]",
CCOc1ccc(OCc2ccc(C(=O)N3CCOCC3)cc2)cc1,inactive,
CN(C)S(=O)(=O)c1ccc(N2CCCC2)c(C(=O)Nc2nc3ccc(F)cc3s2)c1,"inconclusive: 100 µM [inhibitor, partial curve, poor fit]",

SMILES,Potency,"activity, negative = inhibition"
Cc1ccc(C(=O)OCn2ncc(Cl)c(Cl)c2=O)cc1,"inconclusive: 50.1 µM [inhibitor, partial curve, poor fit]",
O=C(NS(=O)(=O)Nc1ccccc1)C1=C(N2CCCC2)COC1=O,"inconclusive: 22.4 µM [inhibitor, single point]",
O=C(c1ccc(Cn2c(=S)[nH]c3ccc(N4CCOCC4)cc3c2=O)cc1)N1CCN(c2ccc(F)cc2)CC1,"inconclusive: 56.2 µM [inhibitor, partial curve, poor fit]",
CCCCCCOc1ccc(/C(N)=N/O)cc1,inactive,
COc1ccc2sc(-c3ccccc3OC)c(-c3ccc(OC)c(F)c3)c2c1,"inconclusive: 17.8 µM [inhibitor, partial curve, poor fit]",
COc1ccccc1N1CCN(Cc2nc3ccccc3c(=O)n2CC(C)=O)CC1,"inconclusive: 100 µM [inhibitor, single point]",
CCCCC(CC)C(=O)Nc1ccc(Nc2ccccc2)cc1 (stereo unspecified),"inconclusive: 15.8 µM [inhibitor, partial curve, poor fit]",
Nc1ccccc1-c1nc2ccccc2[nH]1,inactive,
O=C(c1ccc(OC2CCN(CCc3ccccc3)CC2)cc1)N1CCCC(O)C1 (stereo unspecified),"inconclusive: 25.1 µM [inhibitor, single point]",
Cc1ccc(-n2ncc3c(SCc4cccc(C)c4)ncnc32)cc1,inactive,
O=C(COc1ccc(S(=O)(=O)N2CCCC2)cc1Cl)NC1CC1,"inconclusive: 100 µM [inhibitor, partial curve, poor fit]",
O=C(O)C1C2C=CC(C2)C1C(=O)NCc1ccccc1 (stereo unspecified),"inconclusive: 100 µM [inhibitor, partial curve, poor fit]",
CSCC[C@H](NC(=O)OC(C)(C)C)C(=O)N/N=C/c1ccc2nccnc2c1,"inconclusive: 15.8 µM [inhibitor, single point]",
COc1ccc(S(=O)(=O)N2CCCC2C(=O)Nc2nc3c(s2)CCCC3)cc1 (stereo unspecified),inactive,
O=C(CCc1ccncc1)N1CCCC(Nc2ccc(F)c(F)c2)C1 (stereo unspecified),inactive,
CCNC(=S)NNC(=O)Nc1ccccc1,"inconclusive: 14.1 µM [inhibitor, single point]",
COc1ccc2c3c(c(=O)oc2c1)C1O[C@](c2ccsc2)(Cc2ccccc21)O3,"inconclusive: 20 µM [inhibitor, single point]",
O=C(NNC(=S)NC(=O)c1cccs1)c1ccc(NC(=O)c2ccccc2)cc1,"inconclusive: 100 µM [inhibitor, single point]",
c1ccc2c(c1)ncn2-c1ccc(-c2ccnc3ncnn23)cc1,"inconclusive: 224 µM [inhibitor, partial curve, poor fit]",
c1ccc(-c2cn3nc4c(nc3n2)CCCC4)cc1,inactive,
O=S1(=O)C[C@@H](O)[C@@H](Nc2ccccc2)C1,"inconclusive: 31.6 µM [inhibitor, single point]",
COc1ccccc1N1CCN(C(CNS(=O)(=O)c2cccs2)c2cccnc2)CC1 (stereo unspecified),inactive,
O=C(NCCOC(=O)c1cccs1)c1cccnc1,inactive,
COc1cc2c(cc1NC(=S)Nc1ccccc1C)oc1ccccc12,"inconclusive: 112 µM [inhibitor, single point]",

# A draw from above in order of SMILES length, largest number first.
SMILES,Potency,"activity, negative = inhibition"
O=C(CCc1ccncc1)N1CCCC(Nc2ccc(F)c(F)c2)C1 (stereo unspecified),inactive,
COc1cc2c(cc1NC(=S)Nc1ccccc1C)oc1ccccc12,"inconclusive: 112 µM [inhibitor, single point]",
CCNC(=S)NNC(=O)Nc1ccccc1,"inconclusive: 14.1 µM [inhibitor, single point]",

# Next structures follow.

SMILES,Potency,"activity, negative = inhibition"
COc1ccc(CNS(=O)(=O)c2ccc(N3CCCC3)cc2Br)cc1,inactive,
CC1CC(C)CN(C(=O)c2ccc3c(c2)OCCO3)C1 (stereo unspecified),"inconclusive: 22.4 µM [inhibitor, partial curve, poor fit]",
COc1ccc(-c2csc(=Nc3ccccc3)n2CCO)cc1,"inconclusive: 100 µM [inhibitor, single point]",
COc1ccccc1N1C(=O)C(Cl)=C(N2CCCC2)C1=O,"inconclusive: 100 µM [inhibitor, single point]",
CC(=O)Nc1cccc(-c2csc(Nc3cc(C)ccn3)n2)c1,"inconclusive: 79.4 µM [inhibitor, single point]",
Cc1ccc(C(=O)NCC(=O)NCC(c2cccs2)N2CCOCC2)cc1C (stereo unspecified),"inconclusive: 100 µM [inhibitor, single point]",
COc1ccc([N+](=O)[O-])cc1NC(=O)c1ccc(-n2nc(C)cc2C)cc1,"inconclusive: 20 µM [inhibitor, single point]",
CCN=C1SC(C(=O)Nc2ccccc2)CC(=O)N1CC (stereo unspecified),"inconclusive: 100 µM [inhibitor, single point]",
CCOC(=O)c1sc(=NC(=O)c2cccs2)n(C)c1C,"inconclusive: 79.4 µM [inhibitor, partial curve, poor fit]",
O=C(CN1CCN(c2nc(-c3ccc(F)cc3)cs2)CC1)NCc1ccc2c(c1)OCO2,"inconclusive: 100 µM [inhibitor, single point]",
Cc1ccc(C)c(S(=O)(=O)N2CCCOC2CNC(=O)C(=O)NCc2ccccc2)c1 (stereo unspecified),"inconclusive: 50.1 µM [inhibitor, single point]",
Cc1cc(NC(=O)c2cccc(S(=O)(=O)N3CCOCC3)c2)no1,"inconclusive: 22.4 µM [inhibitor, single point]",
COc1cc(/C=C2/SC(=S)N(Cc3ccccc3)C2=O)ccc1O,inactive,
Cc1c(NS(=O)(=O)c2cccs2)cccc1-c1nc2cccnc2s1,"inconclusive: 100 µM [inhibitor, single point]",
Cc1[nH]c2ccccc2c1C(=O)C(C)Sc1nnc(C2CC2)o1 (stereo unspecified),"inconclusive: 39.8 µM [inhibitor, single point]",
Cc1c(C(=O)NC(=S)Nc2cccnc2)cccc1[N+](=O)[O-],"inconclusive: 11.2 µM [inhibitor, single point]",
Cn1c(=O)c2c(ncn2CCO)n(C)c1=O,,inactive: 2.64% [at 15.4 µM]
O=C(O)c1nn(Cc2ncc(-c3cccc(Cl)c3)o2)c(=O)c2ccccc12,inactive,
CC(C)(C)OC(=O)N1CCC[C@@H]1C(=O)N1CCC(C(=O)O)CC1,"inconclusive: 89.1 µM [inhibitor, single point]",
CCN(CC)c1ccc2c(C)c(CN3CCOCC3)c(=O)oc2c1,"inconclusive: 100 µM [inhibitor, single point]",
Cc1cc(=O)oc2cc(NC(=O)c3ccc(OC(F)F)cc3)ccc12,inactive,
Cc1ccc(-c2nnc(NC(=O)CCS(=O)(=O)c3ccc(F)cc3)o2)c(C)c1,"inconclusive: 79.4 µM [inhibitor, single point]",
O=C(COC(=O)/C=C/c1ccccc1[N+](=O)[O-])Nc1ccc(OCc2ccccc2)cc1,"inconclusive: 100 µM [inhibitor, partial curve, poor fit]",
